Drugs:
A-769662, 10 µM: N#Cc1c(O)c2c(-c3ccc(-c4ccccc4O)cc3)csc2[nH]c1=O
palbociclib, 0.2 µM: CC(=O)c1c(C)c2cnc(Nc3ccc(N4CCNCC4)cn3)nc2n(C2CCCC2)c1=O
SNS-314, 0.004 µM: O=C(Nc1cccc(Cl)c1)Nc1ncc(CCNc2ncnc3ccsc23)s1
crizotinib, 1 µM: C[C@@H](Oc1cc(-c2cnn(C3CCNCC3)c2)cnc1N)c1c(Cl)ccc(F)c1Cl
selumetinib, 0.075 µM: Cn1cnc2c(F)c(Nc3ccc(Br)cc3Cl)c(C(=O)NOCCO)cc21
gemcitabine, 0.002 µM: Nc1ccn([C@@H]2O[C@H](CO)[C@@H](O)C2(F)F)c(=O)n1
GSK650394, 0.8 µM: O=C(O)c1ccc(-c2c[nH]c3ncc(-c4ccccc4)cc23)cc1C1CCCC1
nilutamide, 5 µM: CC1(C)NC(=O)N(c2ccc([N+](=O)[O-])c(C(F)(F)F)c2)C1=O
nutlin-3, 0.5 µM: COc1ccc(C2=N[C@@H](c3ccc(Cl)cc3)[C@@H](c3ccc(Cl)cc3)N2C(=O)N2CCNC(=O)C2)c(OC(C)C)c1
RKI-983, 2 µM: C[C@@H](N)c1ccc(C(=O)Nc2ccnc3[nH]ccc23)cc1
perifosine, 2 µM: CCCCCCCCCCCCCCCCCCOP(=O)([O-])OC1CC[N+](C)(C)CC1
vorinostat, 0.4 µM: O=C(CCCCCCC(=O)Nc1ccccc1)NO

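The test systems are human melanoma cell lines, treated with two drugs together for 72 h and then stained and imaged. Values are the number of DAPI-stained nuclei as a percentage of the DMSO control: 100 is no effect, lower means fewer cells. Every drug was used at one fixed concentration, the higher of two screened. These are primary screening values without error estimates.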 Only some of the drugs and lines screened are listed, without regard to their results. An entry leaves out what has no value listed here. A dash means that no value is listed here.

Results for palbociclib and perifosine are A101D: 78.0; COLO 792: 67.4; WM3619: 66.4; A375: 55.0; WM451Lu: 76.2; COLO 800: 67.8; A2058: 88.8; COLO 829: 83.7; C32: 92.4.
Results for nilutamide and perifosine are A101D: 90.3; COLO 792: 83.6; A375: 62.8; WM451Lu: 81.7; COLO 800: 91.0; A2058: 84.5; COLO 829: 80.1; C32: 93.1.
Results for selumetinib and perifosine are A101D: 63.4; COLO 792: 81.5; WM3619: 70.8; A375: 85.2; WM451Lu: 73.5; COLO 800: 200; A2058: 120; COLO 829: 94.8; C32: 67.4.
Results for perifosine and crizotinib are A101D: 85.4; COLO 792: 85.2; WM3619: 86.5; A375: 89.5; WM451Lu: 86.0; COLO 800: 64.7; A2058: 73.6; COLO 829: 75.2; C32: 102.
Results for perifosine and A-769662 are A101D: 92.3; COLO 792: 112; WM3619: 98.7; A375: 104; 501mel: 85.4; WM451Lu: 115; COLO 800: 93.5; A2058: 84.4; COLO 829: 120; C32: 102.
Results for perifosine and nutlin-3 are A101D: 70.0; COLO 792: 125; WM3619: 72.9; A375: 90.3; WM451Lu: 104; COLO 800: 106; A2058: 83.6; COLO 829: 86.9; C32: 75.7.
Results for perifosine and vorinostat are A101D: 80.5; COLO 792: 105; A375: 82.9; COLO 800: 72.5; A2058: 65.8; COLO 829: 97.5; C32: 107.
Results for RKI-983 and GSK650394 are A101D: 90.4; COLO 792: 70.7; A375: 107; WM451Lu: 85.4; COLO 800: 84.9; A2058: 67.7; COLO 829: 82.6; C32: 83.9.
Results for RKI-983 and gemcitabine are A101D: 68.9; COLO 792: 56.0; WM3619: 47.7; A375: 126; WM451Lu: 46.4; COLO 800: 61.2; A2058: 52.4; COLO 829: 41.6; C32: 71.8.
Results for gemcitabine and perifosine are A101D: 74.3; COLO 792: 68.9; WM3619: 54.3; A375: 73.1; WM451Lu: 33.3; COLO 800: 36.8; A2058: 42.6; COLO 829: 51.2; C32: 93.5.
Results for perifosine and GSK650394 are A101D: 80.8; COLO 792: 82.7; A375: 95.3; COLO 800: 65.6; A2058: 79.2; COLO 829: 86.0; C32: 101.
Results for RKI-983 and nilutamide are A101D: 73.9; COLO 792: 56.0; WM3619: 117; A375: 107; WM451Lu: 81.3; COLO 800: 110; A2058: 75.8; COLO 829: 112; C32: 84.5.
Results for RKI-983 and vorinostat are A101D: 69.9; COLO 792: 70.7; A375: 89.7; COLO 800: 67.5; A2058: 81.0; COLO 829: 72.3; C32: 66.8.
Results for A-769662 and RKI-983 are A101D: 83.2; COLO 792: 82.9; WM3619: 87.0; A375: 125; 501mel: 107; WM451Lu: 75.7; COLO 800: 114; A2058: 70.0; COLO 829: 65.0; C32: 70.4.
Results for RKI-983 and crizotinib are A101D: 56.5; COLO 792: 72.2; WM3619: 85.0; A375: 105; WM451Lu: 66.2; COLO 800: 86.0; A2058: 67.6; COLO 829: 48.7; C32: 61.4.
Results for SNS-314 and perifosine are A101D: 77.3; COLO 792: 47.7; A375: 73.3; WM451Lu: 47.4; COLO 800: 42.1; A2058: 77.5; COLO 829: 79.2; C32: 78.4.
Results for RKI-983 and selumetinib are A101D: 68.3; COLO 792: 45.1; WM3619: 71.6; A375: 97.7; WM451Lu: 72.8; COLO 800: 82.1; A2058: 75.0; COLO 829: 97.8; C32: 78.8.
Results for nutlin-3 and RKI-983 are A101D: 66.9; COLO 792: 60.1; WM3619: 76.7; A375: 97.7; WM451Lu: 81.1; COLO 800: 58.5; A2058: 69.5; COLO 829: 74.9; C32: 52.5.
Results for RKI-983 and SNS-314 are A101D: 55.5; COLO 792: 34.6; WM3619: 77.4; A375: 142; WM451Lu: 36.0; COLO 800: 32.6; A2058: 39.3; COLO 829: 64.7; C32: 51.5.

Repeated from the top, 2 entries:

| Combination | A101D | COLO 792 | WM3619 | A375 | 501mel | WM451Lu | COLO 800 | A2058 | COLO 829 | C32 |
|---|---|---|---|---|---|---|---|---|---|---|
| palbociclib and perifosine | 78.0 | 67.4 | 66.4 | 55.0 | - | 76.2 | 67.8 | 88.8 | 83.7 | 92.4 |
| nilutamide and perifosine | 90.3 | 83.6 | - | 62.8 | - | 81.7 | 91.0 | 84.5 | 80.1 | 93.1 |

Values as published with doi:10.1371/journal.pone.0140310, rounded.